# Measured values: PubChem BioAssay AID493014 (National Center for Advancing Translational Sciences (NCATS), 2011)
# The campaign covered roughly 340,000 compounds. About 170 (0.05%) were called active. The inconclusive results got no clear call from the source; some entries with a clear call stand among them for comparison. The call rests on the fitted dose curve; in most records, active means well fitted inhibition curve with a large enough effect in the signal ratio, with a control signal flat (not every such curve was filed as active); inconclusive means small, poorly fitted or top-dose-only effect, or effect the other way, or a change in a side signal; inactive means flat fitted curve, though single readings scatter; the % refers to the signal ratio. Potencies of inconclusive entries are doubtful fits and often do not repeat.
# Test: qHTS Assay to Find Inhibitors of Chronic Active B-Cell Receptor Signaling;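 on activity change, negative = inhibition: plate controls were basal doxycycline-induced cells for no effect and cells given 10 µM MG132 for full effect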
# Details: ABC-DLBCL IkBa-CBG/CBR reporter, luminescence ratio (green luciferase fused to IkBa over red control in TMD8 lymphoma cells), 4 h; activity change, negative = inhibition: at 46.1 µM (top of the series)
# In short: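 Doxycycline induced both beetle luciferases in TMD8 lymphoma cells; IKK-driven degradation limits the IkappaBalpha-fused green signal, while red luminescence normalises for cell number and nonspecific effects. Compounds tested up to 46 uM, 4 hrs.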
# Potency means the concentration at half of the fitted maximal effect.
SMILES,Potency,"activity change, negative = inhibition"
COc1ccc2[nH]cc(/C=C/C(=O)c3ccccc3)c2c1,"inconclusive: 22.4 µM [falling, partial curve]",–
Cc1ccccc1-c1nc(CN2CCC(C(=O)N3CCN(c4ccccn4)CC3)CC2)c(C)o1,–,inconclusive: 14%
CCOc1ccc(NC(=O)COc2ccc(C(=O)NCc3cccc(OC)c3)cc2OC)cc1,–,inconclusive: 5.96%
CCSc1nnc(NS(=O)(=O)c2ccc(C)cc2)s1,–,inconclusive: 8.4%
CCCNc1c(NS(=O)(=O)c2cccc(C#N)c2)c(=O)oc2ccccc12,–,inactive
Nc1nnc(SC2CCCC2)s1,–,inconclusive: 0.221%
O=C(N/N=C/c1ccco1)c1ccccn1,"inconclusive: 35.5 µM [falling, single point]",–
O=S(=O)(c1ccc(Cl)c(NC(=S)Nc2ccccc2N2CCOCC2)c1)N1CCOCC1,–,inactive
O=C(CC12CC3CC(CC(C3)C1)C2)NC(=S)NCc1ccccc1,–,inactive
COc1ccc(CN2CCC(CO)(Cc3ccccc3C(F)(F)F)CC2)c(F)c1,–,inconclusive: 4.96%
O=C(NCCc1c[nH]c2ccccc12)OCCSS(=O)(=O)O,"inconclusive: 7.08 µM [falling, full curve, poor fit]",–
COc1ccc2c3c(cccc13)N(C)N=C2C,–,inconclusive: -0.334%
Cc1onc(-c2c(F)cccc2Cl)c1C(=O)NCc1cccs1,–,inconclusive: 6.72%
O=S(=O)(N/N=C1\CCCc2ccccc21)c1ccccc1,–,inconclusive: -4.37%
CC(C)c1ccc(NS(=O)(=O)c2ccc3[nH]cc(C(=O)NCCc4ccccc4)c(=O)c3c2)cc1,–,inconclusive: 13.2%
COc1ccc(CN(C)CC(O)COC(c2ccccc2)c2ccccc2)c(OC)c1OC (stereo not given),–,inconclusive: -17.2%
CCc1ccc2c(COn3nnc4ccc(S(=O)(=O)N(C)C)cc43)cc(=O)oc2c1,"inconclusive: 17.8 µM [falling, single point]",–
O=C(NC1=NCCCCC1)c1cccc2ccccc12,"inconclusive: 7.08 µM [rising, partial curve, poor fit]",–
C/C(=N/NC(=O)c1ccc2c(c1)OCO2)c1cccc([N+](=O)[O-])c1,"inconclusive: 7.94 µM [falling, partial curve]",–
COc1ccc(C(=O)CCNc2ccc3c(c2)OCCO3)cc1,–,inactive
Cc1cc(C)cc(N(CC(=O)N2CCC(C)CC2)S(C)(=O)=O)c1,–,inconclusive: 2.24%
O=C(NCC1CCCO1)C1CCC(=O)N1CCc1ccccc1 (stereo not given),–,inconclusive: 6.19%
COc1ccc(Cl)cc1NC(=O)C(C)N(C)Cc1cccc(Cl)c1Cl (stereo not given),"inconclusive: 18.4 µM [rising, partial curve, poor fit]",–
COc1cccc(NS(=O)(=O)CC23CCC(CC2=O)C3(C)C)c1 (stereo not given),"inconclusive: 2.31 µM [falling, partial curve, poor fit]",–
Cc1cc([N+](=O)[O-])ccc1NCc1ccc2ccccc2c1,"inconclusive: 10 µM [rising, partial curve]",–
Oc1ccccc1-c1n[nH]c(=S)n1Cc1ccco1,"inconclusive: 23.1 µM [rising, partial curve, poor fit]",–
Cc1ccc(S(=O)(=O)NNc2nc3ccccc3nc2C(F)(F)F)cc1,–,inactive

# Of the compounds above, these contain a nitro group on carbon.
SMILES,Potency,"activity change, negative = inhibition"
C/C(=N/NC(=O)c1ccc2c(c1)OCO2)c1cccc([N+](=O)[O-])c1,"inconclusive: 7.94 µM [falling, partial curve]",–
Cc1cc([N+](=O)[O-])ccc1NCc1ccc2ccccc2c1,"inconclusive: 10 µM [rising, partial curve]",–

# The list continues.

SMILES,Potency,"activity change, negative = inhibition"
N/C(=N\OC(=O)CCC1CCCCC1)c1ccccn1,–,inconclusive: -12.4%
O=c1/c(=C/c2ccc(CNS(=O)(=O)c3ccccc3)o2)sc2n1CCN=2,–,inconclusive: 0.0485%
Nc1nc(SCc2ccccc2Cl)ns1,–,inconclusive: -11.9%
COc1cccc2cc(C(C)N(CCCN3CCOCC3)C(=S)Nc3cccc(C)c3)oc12 (stereo not given),–,inactive
CCC[C@@H](NS(=O)(=O)c1ccc(C)cc1)C(=O)Oc1ccc2c3c(c(=O)oc2c1)CCC3,–,inconclusive: -4.83%
CC(=O)c1ccc(N2CCN(S(=O)(=O)c3cc(-c4noc(C)n4)ccc3C)CC2)cc1,"inconclusive: 0.316 µM [falling, full curve]",–
O=C(Nc1ccc(Oc2cccc(C(F)(F)F)c2)nc1)c1ccco1,–,inactive
COc1cc(NC(=O)c2ccccc2Cl)ccc1NC(=O)c1ccco1,–,inconclusive: -10.5%
CC1CCCCC1NS(=O)(=O)c1ccc(S(=O)(=O)NCc2ccncc2)cc1 (stereo not given),–,inactive
CC[C@]12c3[nH]c4ccc(Cl)cc4c3CCN1C(=O)[C@@H](CC(=O)NC(C)(C)C)C[C@@H]2C(=O)N1CCN(C(=O)c2ccco2)CC1,–,inconclusive: -6.94%
Cc1ccc2c(Cl)cc(Cl)c(OCC(=O)Nc3ccc(C)c(S(=O)(=O)N(C)C)c3)c2n1,–,inconclusive: 12.8%
Cc1ccc(N2CC(C(=O)Nc3ncc([N+](=O)[O-])s3)CC2=O)cc1 (stereo not given),–,inconclusive: 7.78%
COc1cc(/C=N/N(C)C)ccc1OC(=O)c1cccs1,–,inactive
CCOC(=O)c1ccc(NC(=O)CNC(=O)C2CCCCC2)cc1,–,inconclusive: 1.4%
CC(=O)Nc1ccc(NC(=O)CSc2nnc(-c3ccco3)n2Cc2ccco2)cc1,–,inconclusive: -2.31%
CCN1C(=O)c2n[nH]c(C(=O)OC)c2C1=O,–,inconclusive: 8.79%
O=C(NNC(=O)C1CCN(Cc2ccccc2)CC1)c1cccc(Cl)c1,"inconclusive: 29.1 µM [falling, single point]",–
S=C(Nc1ccc(Br)cc1Cl)N1CCN(c2ccccn2)CC1,–,inactive
COc1ccc(NC(=O)COC(=O)/C=C/C(=O)OCC(=O)Nc2ccc(OC)c(Cl)c2)cc1Cl,–,inactive
CCCN(C(=O)COC(=O)CC1CCCCC1)c1c(N)n(Cc2ccccc2)c(=O)[nH]c1=O,–,inconclusive: 1.36%
NS(=O)(=O)c1ccc(NC=C2C(=O)OC3(CCCCC3)OC2=O)cc1,–,inconclusive: -17.3%
O=C(OCn1nnc2ccccc2c1=O)C1CCN(S(=O)(=O)c2cccs2)CC1,"inconclusive: 4.11 µM [falling, partial curve, poor fit]",–
Cc1cc(C(=O)NC2CCCc3c2cnn3-c2ccc(C)c(C)c2)nc(C)n1 (stereo not given),"inconclusive: 28.2 µM [falling, partial curve, poor fit]",–
Cc1cc(N=Nc2ccccc2)c(NCC(O)C(O)C(O)CO)cc1C (stereo not given),–,inconclusive: 22.1%
CCSc1nc2sc3c(c2c(=O)n1-c1ccccc1C)CCN(C)C3,–,inconclusive: 1.4%
COc1ccccc1N1CCN(/N=C/C=C\c2ccco2)CC1,–,inactive
Cn1cc(C(=O)N/N=C/c2ccc3c(c2)OCO3)c2ccccc21,"inconclusive: 22.4 µM [falling, partial curve]",–

SMILES,Potency,"activity change, negative = inhibition"
O=C(NC12CC3CC(CC(C3)C1)C2)c1ccccc1,–,inactive
Cc1nc2c3cnn(-c4ccccc4)c3ncn2n1,–,inconclusive: 10%
COc1ccc(-c2cc(C(=O)Nc3cc(C)nn3-c3ccccc3)no2)cc1,–,inconclusive: 1.08%
Cc1ccc2nc(/C(C#N)=C\c3ccc(N4CCOCC4)o3)[nH]c2c1,–,inconclusive: 28.9%
COc1ccc(S(=O)(=O)N2CCOCC2)cc1NC(=O)COc1cccnc1[N+](=O)[O-],–,inconclusive: -8.85%
O=C(N/N=C\c1cc2c(cc1[N+](=O)[O-])OCO2)c1cccs1,–,inconclusive: -21.7%
CCN(C(=O)CSc1nc2nc(C)cc(C)n2n1)c1cccc(C)c1,–,inconclusive: 8.88%
O/C(=C\c1nc2ccccc2[nH]1)c1cccs1,–,inconclusive: -0.236%
COCCCNC(=O)Cn1nnc(-c2ccc(NC(=O)c3cccnc3)cc2)n1,"inconclusive: 12.6 µM [falling, partial curve, poor fit]",–
CCOC(=O)c1c(-c2ccc(-c3ccccc3)cc2)csc1NC(=O)CNCCN(C)C,"inconclusive: 20 µM [falling, single point]",–
O=C(/C=C/c1ccco1)N(Cc1ccccc1F)C1CCS(=O)(=O)C1 (stereo not given),–,inconclusive: 3.1%
Cc1ccc(O)c(C(=O)CC(=O)c2ccc(Cl)cc2)c1,–,inconclusive: 5.14%
COc1cc(C(=O)Nc2ccc(C)cc2)c2ccccc2n1,"inconclusive: 3.98 µM [falling, partial curve, poor fit]",–
CC(=O)Nc1ccc(C(=O)Nc2cc(C(F)(F)F)ccc2-n2cnc3ccccc32)cc1,–,inconclusive: -9.09%
OC(CON=C1c2ccccc2-c2ccccc21)CN1CCNCC1 (stereo not given),–,inconclusive: 0.836%
O=Cc1ccccc1OCc1nnsc1Cl,–,inconclusive: 1.36%
O=C(NCCNC(=O)c1ccc(-c2ccc(Cl)c(Cl)c2)o1)c1cnccn1,–,inconclusive: -6.34%
c1ccc(CN2CCN(c3cnc4ccccc4n3)CC2)cc1,–,inactive
O=C(Oc1ccc2ccccc2c1Cl)N1CCCCCC1,"inconclusive: 29.1 µM [rising, partial curve, poor fit]",–
Cc1ccc(-c2[nH]c3cc(C(N)=O)ccc3c(=O)c2O)cc1,–,inconclusive: 0.0342%
COc1c(Br)cc2c(C)c(C(=O)O)oc2c1Br,–,inactive
O=C1CN(C(=O)c2ccccc2F)C(c2ccc(F)cc2)c2cc(Br)ccc2N1 (stereo not given),–,inconclusive: -0.244%
O=C(c1ccncc1)N1CCN(S(=O)(=O)c2cccc(F)c2)CC1,–,inactive
COc1ccc(CSCC(=O)N/N=C/c2ccccc2OCc2ccccc2)cc1,"inconclusive: 16.4 µM [falling, partial curve]",–
Fc1ccc(/C=N/Nc2nc3ccccc3[nH]2)cc1F,"inconclusive: 35.5 µM [falling, single point]",–
CCC1(c2ccc(Cl)cc2)NC(=O)N(CC(=O)NC2CCCC(C)C2C)C1=O (stereo not given),–,inconclusive: -12.3%
